These results are taken from paper PMC5431615.

Experiment [1] concerns the target SH2 domain of Nck2 in the Lyn-PDGFR biosensor. The experiment can be described thus: FRET or BRET; intramolecular FRET (ECFP/FRET emission ratio imaging) of Lyn- or KRas-tagged biosensor in live MEFs at 37 C, before and after PDGF stimulation; both partners on one chain. On the technique in general: In BRET a luciferase serves as donor, and the signal depends on an acceptor being close.

Experiment [2] deals with SH2 domain of Nck2 with R45V in the Lyn-PDGFR biosensor. The experiment is described as above.
Experiment [3] deals with SH2 domain of Nck2 in the KRas-PDGFR biosensor. The experiment is described as above.
Experiment [4] deals with SH2 domain of Nck2 with R45V in the KRas-PDGFR biosensor. The description is as above.
Experiment [5] concerns the target SH2 domain of Nck2 in the purified PDGFR biosensor. In words: FRET or BRET; intramolecular FRET (ECFP to YPet) of the purified biosensor, both partners on one chain; emission ratio 478 nm/526 nm, excitation 430 nm, before and after 1 mM ATP and 1 ug/ml PDGF receptor (or EGFR, Src, Fyn, Yes, Abl) in 50 mM Tris-HCl, 100 mM NaCl, 10 mM MgCl2, 2 mM DTT, pH 8; binding lowers FRET; both purified.

For experiment [6], the target named is SH2 domain of Nck2 with R45V in the purified PDGFR biosensor. The description is as above.

Results are given in words; binding and its absence hold for the method and conditions named. For part of these data: Binding calls can cover weak binding; strength is not graded here. For part of these data: Binding seen in cells or lysates may run through a third protein.

On to DESVDYVPMLDM (phosphotyrosine at Tyr751 (by PDGFR of the cells after PDGF stimulation)) [PDGFR substrate peptide with phosphorylated Tyr751 in the Lyn-PDGFR biosensor], for which the binding entry is “binds” in experiment [1] and “no binding” in experiment [2].
Consider DESVDFVPMLDM [PDGFR substrate peptide with Y751F in the Lyn-PDGFR biosensor], for which the binding entry in experiment [1] is given as “no binding”.
For the molecule DESVDFVPMLDM [PDGFR substrate peptide with Y751F in the KRas-PDGFR biosensor], the binding result in experiment [3] was “no binding”.
On to DESVDYVPMLDM (phosphotyrosine at Tyr751 (by PDGFR of the cells after PDGF stimulation)) [PDGFR substrate peptide with phosphorylated Tyr751 in the KRas-PDGFR biosensor], for which the binding entry is “binds” in experiment [3] and “no binding” in experiment [4].
For DESVDYVPMLDM (phosphotyrosine at Tyr751 (by the added active PDGFR)) [PDGFR substrate peptide with phosphorylated Tyr751 in the purified PDGFR biosensor], the binding result in experiment [5] is “binds”; in experiment [6], “no binding”.
As to DESVDFVPMLDM [PDGFR substrate peptide with Y751F in the purified PDGFR biosensor], the binding result in experiment [5] was “no binding”.
